Experimental data from the supplement of paper PMC12067093, “Discovery and optimisation of a covalent ligand for TRIM25 and its application to targeted protein ubiquitination” (Chemical Science, 2025).
This is one part of the list.
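Note: competitive chemoproteomic profiling in live THP-1 cells with an iodoacetamide desthiobiotin (IA-DTB) probe, comparing probe-labelled peptide intensities in compound-treated cells against DMSO-treated controls.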

Sequences of proteins named here, by UniProt entry; tags and fusion partners are left off. A change or cut given only in a name is not applied to a line headed by its entry.
UniProt Q12768: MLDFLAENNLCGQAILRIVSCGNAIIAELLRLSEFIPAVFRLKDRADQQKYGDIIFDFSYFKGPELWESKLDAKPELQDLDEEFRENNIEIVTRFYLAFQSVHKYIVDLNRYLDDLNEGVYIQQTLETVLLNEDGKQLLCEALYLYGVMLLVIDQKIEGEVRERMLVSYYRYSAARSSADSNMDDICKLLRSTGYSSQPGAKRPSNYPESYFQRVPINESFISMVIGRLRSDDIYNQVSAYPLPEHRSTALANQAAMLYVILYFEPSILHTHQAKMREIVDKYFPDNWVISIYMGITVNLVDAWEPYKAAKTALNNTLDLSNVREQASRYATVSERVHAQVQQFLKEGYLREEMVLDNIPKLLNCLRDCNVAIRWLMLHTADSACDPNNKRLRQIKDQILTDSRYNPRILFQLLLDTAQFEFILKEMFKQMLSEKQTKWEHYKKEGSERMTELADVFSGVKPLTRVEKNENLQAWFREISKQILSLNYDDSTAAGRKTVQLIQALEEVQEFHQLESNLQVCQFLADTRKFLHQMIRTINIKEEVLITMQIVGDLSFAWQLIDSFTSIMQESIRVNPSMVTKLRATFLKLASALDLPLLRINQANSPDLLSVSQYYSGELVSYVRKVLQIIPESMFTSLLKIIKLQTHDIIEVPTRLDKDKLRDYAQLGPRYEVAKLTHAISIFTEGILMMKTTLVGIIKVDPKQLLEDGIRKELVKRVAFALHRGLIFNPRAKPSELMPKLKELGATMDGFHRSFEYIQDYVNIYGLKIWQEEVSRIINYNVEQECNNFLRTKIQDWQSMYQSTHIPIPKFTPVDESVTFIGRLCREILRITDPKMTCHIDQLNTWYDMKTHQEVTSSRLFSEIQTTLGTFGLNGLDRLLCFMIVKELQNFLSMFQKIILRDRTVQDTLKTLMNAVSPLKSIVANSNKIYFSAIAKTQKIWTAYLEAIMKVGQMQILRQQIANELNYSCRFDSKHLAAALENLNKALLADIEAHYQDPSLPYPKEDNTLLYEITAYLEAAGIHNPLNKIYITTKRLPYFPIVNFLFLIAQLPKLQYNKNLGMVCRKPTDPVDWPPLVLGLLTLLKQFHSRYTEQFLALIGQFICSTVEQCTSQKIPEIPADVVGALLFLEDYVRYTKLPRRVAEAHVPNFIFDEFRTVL
UniProt Q9HAD4: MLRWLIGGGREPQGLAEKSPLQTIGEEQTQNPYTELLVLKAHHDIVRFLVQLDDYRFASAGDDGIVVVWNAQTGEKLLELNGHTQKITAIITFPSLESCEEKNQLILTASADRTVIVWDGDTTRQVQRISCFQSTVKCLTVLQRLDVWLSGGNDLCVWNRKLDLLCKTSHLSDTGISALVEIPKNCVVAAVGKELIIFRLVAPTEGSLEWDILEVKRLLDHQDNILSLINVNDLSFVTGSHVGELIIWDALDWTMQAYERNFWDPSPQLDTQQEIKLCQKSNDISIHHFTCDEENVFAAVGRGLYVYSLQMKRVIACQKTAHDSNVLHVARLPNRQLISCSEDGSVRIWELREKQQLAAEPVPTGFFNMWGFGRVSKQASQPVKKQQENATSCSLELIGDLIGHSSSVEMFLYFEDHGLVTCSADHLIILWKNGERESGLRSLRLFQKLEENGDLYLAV
UniProt O43379: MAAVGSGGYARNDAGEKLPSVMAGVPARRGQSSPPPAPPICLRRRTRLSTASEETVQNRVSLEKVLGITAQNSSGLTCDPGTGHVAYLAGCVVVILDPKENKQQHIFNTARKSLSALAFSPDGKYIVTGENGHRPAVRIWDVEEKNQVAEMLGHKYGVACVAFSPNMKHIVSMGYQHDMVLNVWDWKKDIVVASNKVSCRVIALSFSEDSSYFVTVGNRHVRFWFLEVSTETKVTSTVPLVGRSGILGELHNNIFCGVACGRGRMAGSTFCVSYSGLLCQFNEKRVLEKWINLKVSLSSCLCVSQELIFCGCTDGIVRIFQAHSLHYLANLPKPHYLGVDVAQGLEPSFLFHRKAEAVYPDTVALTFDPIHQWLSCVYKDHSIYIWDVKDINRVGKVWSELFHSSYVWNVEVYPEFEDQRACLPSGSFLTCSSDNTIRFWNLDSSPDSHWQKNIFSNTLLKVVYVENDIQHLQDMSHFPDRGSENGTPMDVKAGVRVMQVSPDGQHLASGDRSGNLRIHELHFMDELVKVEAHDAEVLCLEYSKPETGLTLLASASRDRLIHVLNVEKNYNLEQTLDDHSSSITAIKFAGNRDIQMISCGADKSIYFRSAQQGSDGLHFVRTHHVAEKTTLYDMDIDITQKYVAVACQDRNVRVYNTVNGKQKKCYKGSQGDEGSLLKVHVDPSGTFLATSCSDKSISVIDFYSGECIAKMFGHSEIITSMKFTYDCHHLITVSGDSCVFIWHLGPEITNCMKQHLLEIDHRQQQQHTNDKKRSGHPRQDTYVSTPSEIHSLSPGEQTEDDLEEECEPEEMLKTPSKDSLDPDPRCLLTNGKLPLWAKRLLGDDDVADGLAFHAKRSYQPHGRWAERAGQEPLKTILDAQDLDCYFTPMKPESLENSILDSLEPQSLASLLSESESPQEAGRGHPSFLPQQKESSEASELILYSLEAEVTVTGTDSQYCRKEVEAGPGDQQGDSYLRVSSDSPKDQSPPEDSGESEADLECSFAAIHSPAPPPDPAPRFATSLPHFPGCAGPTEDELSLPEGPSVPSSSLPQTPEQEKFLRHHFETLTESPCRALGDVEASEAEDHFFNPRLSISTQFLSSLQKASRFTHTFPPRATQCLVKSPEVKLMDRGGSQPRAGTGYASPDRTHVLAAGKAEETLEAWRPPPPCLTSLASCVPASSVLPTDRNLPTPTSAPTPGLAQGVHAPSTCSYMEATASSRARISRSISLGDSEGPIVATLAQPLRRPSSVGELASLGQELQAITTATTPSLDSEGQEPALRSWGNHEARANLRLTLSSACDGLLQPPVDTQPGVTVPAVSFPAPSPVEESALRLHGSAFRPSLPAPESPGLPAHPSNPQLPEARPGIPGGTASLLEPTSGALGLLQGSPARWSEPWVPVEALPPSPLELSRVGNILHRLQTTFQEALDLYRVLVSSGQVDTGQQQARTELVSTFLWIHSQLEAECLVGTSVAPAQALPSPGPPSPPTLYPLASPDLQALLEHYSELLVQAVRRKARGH
UniProt Q8IWA0: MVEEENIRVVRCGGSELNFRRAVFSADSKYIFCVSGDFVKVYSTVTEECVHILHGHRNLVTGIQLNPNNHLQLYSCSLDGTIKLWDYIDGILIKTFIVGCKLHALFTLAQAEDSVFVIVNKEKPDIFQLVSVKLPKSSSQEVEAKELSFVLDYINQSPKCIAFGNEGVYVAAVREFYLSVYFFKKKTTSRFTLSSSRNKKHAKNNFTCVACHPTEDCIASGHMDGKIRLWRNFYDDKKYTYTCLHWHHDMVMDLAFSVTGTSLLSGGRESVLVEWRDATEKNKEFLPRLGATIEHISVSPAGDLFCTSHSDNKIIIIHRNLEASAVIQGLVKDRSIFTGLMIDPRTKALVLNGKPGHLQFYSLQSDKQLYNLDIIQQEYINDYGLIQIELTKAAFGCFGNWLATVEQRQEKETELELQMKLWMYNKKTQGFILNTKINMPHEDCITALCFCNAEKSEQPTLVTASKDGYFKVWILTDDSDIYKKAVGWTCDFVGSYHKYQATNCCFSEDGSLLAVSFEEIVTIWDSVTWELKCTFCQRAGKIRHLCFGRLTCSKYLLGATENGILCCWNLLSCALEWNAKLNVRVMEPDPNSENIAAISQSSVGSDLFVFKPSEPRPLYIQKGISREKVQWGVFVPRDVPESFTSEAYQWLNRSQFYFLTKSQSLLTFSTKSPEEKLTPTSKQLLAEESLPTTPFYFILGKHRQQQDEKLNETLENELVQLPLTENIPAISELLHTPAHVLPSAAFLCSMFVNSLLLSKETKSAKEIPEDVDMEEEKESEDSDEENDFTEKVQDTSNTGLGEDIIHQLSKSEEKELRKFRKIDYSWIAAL
UniProt Q562E7: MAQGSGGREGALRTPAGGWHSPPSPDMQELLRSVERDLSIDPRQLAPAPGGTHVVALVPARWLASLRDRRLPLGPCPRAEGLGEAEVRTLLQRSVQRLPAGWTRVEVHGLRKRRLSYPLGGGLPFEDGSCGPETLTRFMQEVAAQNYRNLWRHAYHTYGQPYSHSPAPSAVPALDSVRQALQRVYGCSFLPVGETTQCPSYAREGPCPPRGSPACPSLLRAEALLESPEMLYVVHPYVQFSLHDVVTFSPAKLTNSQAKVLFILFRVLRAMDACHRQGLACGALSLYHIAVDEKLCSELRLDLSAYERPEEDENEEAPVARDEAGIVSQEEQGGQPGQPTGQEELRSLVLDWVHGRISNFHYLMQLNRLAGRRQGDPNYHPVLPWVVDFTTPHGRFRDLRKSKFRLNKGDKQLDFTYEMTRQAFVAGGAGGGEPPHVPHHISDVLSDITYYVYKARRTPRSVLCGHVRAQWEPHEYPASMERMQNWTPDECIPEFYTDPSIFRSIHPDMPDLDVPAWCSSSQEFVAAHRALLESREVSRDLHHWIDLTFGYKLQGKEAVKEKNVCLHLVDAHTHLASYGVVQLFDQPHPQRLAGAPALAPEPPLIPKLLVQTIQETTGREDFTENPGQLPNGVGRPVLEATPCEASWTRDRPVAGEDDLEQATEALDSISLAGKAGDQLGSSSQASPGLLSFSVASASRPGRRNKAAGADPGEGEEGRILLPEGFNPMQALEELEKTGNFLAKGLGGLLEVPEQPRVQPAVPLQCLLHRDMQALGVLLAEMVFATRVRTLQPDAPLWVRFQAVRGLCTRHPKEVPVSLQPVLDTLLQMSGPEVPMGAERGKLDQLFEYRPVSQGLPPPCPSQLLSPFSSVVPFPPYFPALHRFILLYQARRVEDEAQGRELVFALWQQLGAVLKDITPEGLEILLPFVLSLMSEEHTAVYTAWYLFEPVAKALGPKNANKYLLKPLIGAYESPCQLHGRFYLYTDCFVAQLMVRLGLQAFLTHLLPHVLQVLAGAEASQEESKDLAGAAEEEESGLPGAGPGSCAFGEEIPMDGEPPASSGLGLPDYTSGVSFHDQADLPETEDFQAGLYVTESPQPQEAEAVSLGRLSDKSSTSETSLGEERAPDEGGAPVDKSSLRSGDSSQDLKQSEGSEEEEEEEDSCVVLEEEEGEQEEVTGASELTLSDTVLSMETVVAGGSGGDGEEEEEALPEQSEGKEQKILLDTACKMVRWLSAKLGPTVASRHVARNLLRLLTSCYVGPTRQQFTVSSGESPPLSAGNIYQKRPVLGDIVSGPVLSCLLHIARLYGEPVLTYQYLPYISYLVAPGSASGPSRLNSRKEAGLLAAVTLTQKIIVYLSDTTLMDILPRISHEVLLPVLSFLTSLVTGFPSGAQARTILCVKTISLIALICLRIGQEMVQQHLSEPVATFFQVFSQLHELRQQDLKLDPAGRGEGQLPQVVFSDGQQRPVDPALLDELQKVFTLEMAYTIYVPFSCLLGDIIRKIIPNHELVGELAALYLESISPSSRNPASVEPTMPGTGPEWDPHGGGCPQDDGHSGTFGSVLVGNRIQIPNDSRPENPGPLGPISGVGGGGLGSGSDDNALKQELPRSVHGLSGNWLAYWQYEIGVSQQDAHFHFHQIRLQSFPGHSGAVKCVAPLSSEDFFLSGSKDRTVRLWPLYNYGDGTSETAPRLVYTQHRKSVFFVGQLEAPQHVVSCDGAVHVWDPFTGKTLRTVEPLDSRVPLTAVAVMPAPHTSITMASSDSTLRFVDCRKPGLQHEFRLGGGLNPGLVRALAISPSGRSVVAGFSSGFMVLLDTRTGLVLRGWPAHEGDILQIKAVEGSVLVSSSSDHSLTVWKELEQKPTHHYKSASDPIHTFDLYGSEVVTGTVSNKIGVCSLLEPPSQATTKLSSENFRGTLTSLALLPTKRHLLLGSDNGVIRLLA
UniProt Q15061: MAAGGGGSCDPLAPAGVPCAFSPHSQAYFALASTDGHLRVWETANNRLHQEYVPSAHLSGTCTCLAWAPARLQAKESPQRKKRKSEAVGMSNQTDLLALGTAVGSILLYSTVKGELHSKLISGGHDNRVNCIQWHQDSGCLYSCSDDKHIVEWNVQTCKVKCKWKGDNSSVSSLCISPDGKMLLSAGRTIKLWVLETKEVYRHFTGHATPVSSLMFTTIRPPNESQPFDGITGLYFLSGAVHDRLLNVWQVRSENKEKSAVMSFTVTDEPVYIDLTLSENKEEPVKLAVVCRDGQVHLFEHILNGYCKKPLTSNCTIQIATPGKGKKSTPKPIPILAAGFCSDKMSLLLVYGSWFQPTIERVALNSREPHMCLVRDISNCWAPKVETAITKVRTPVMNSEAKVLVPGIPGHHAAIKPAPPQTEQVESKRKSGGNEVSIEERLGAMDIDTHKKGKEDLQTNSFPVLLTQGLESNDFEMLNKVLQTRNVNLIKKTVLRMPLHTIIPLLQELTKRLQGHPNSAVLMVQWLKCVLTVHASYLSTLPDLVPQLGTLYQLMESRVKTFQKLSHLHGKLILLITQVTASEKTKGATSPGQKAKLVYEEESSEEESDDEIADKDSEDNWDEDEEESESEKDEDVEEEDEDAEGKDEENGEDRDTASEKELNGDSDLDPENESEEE

Each target was assayed with CC1Cc2ccccc2N1C(=O)C1CCCN(C1)C(=O)CCl (mixture of isomers) [TRIM25 ligand 11 (diastereomer mixture)] (assay: probe-labelled cysteine peptide fold change vs DMSO (competition) (log2 fold change); higher = less target engagement (more negative = stronger competition)). Conditions: 10 µM; THP-1; incubation time: 4 h.
For “WDR55_Q9H6Y2_191_LLLTASGDGCLGIFNIK (UniProt Q9H6Y2)”, the “probe-labelled cysteine peptide fold change” value was -0.00698. In the case of “WASHC5_Q12768_385_WLMLHTADSACDPNNKR (UniProt Q12768)”, the “probe-labelled cysteine peptide fold change” value is reported as -0.125. For “WDR41_Q9HAD4_186_NCVVAAVGK (UniProt Q9HAD4)”, the “probe-labelled cysteine peptide fold change” value was 0.149. In the case of “XAB2_Q9HCS7_98_CVTDPAYEDVNNCHER (UniProt Q9HCS7)”, the “probe-labelled cysteine peptide fold change” value is reported as 0.0769. “WDR62_O43379_256_SGILGELHNNIFCGVACGR (UniProt O43379)” was tested, and the “probe-labelled cysteine peptide fold change” value was 0.132. In the case of “WDR47_O94967_367_SLMLENTECHSIYEESPER (UniProt O94967)”, the “probe-labelled cysteine peptide fold change” value is reported as 0.181. “WDR62_O43379_376_KAEAVYPDTVALTFDPIHQWLSCVYK (UniProt O43379)” was tested, and the “probe-labelled cysteine peptide fold change” value was 0.151. For “WDR75_Q8IWA0_546_HLCFGR (UniProt Q8IWA0)”, the “probe-labelled cysteine peptide fold change” value was 0.115. For “WDR81_Q562E7_215_GSPACPSLLR (UniProt Q562E7)”, the “probe-labelled cysteine peptide fold change” value was -0.15. In the case of “WDR81_Q562E7_464_SVLCGHVR (UniProt Q562E7)”, the “probe-labelled cysteine peptide fold change” value is reported as 0.0942. In the case of “WDR43_Q15061_372_EPHMCLVR (UniProt Q15061)”, the “probe-labelled cysteine peptide fold change” value is reported as -0.0214. With “WDR44_Q5JSH3_147_CFPSDETCEKPVDETTK (UniProt Q5JSH3)” the “probe-labelled cysteine peptide fold change” value was -0.175. For “WDR41_Q9HAD4_131_ISCFQSTVK (UniProt Q9HAD4)”, the “probe-labelled cysteine peptide fold change” value was 0.229. With “XPC_Q01831_790_KLDIDCVQAITGFDFHGGYSHPVTDGYIVCEEFK (UniProt Q01831)” the “probe-labelled cysteine peptide fold change” value was 0.111. In the case of “WDR91_A4D1P6_246_LGDSELAMVCSQR (UniProt A4D1P6)”, the “probe-labelled cysteine peptide fold change” value is reported as -0.0616. With “WASHC5_Q12768_11_MLDFLAENNLCGQAILR (UniProt Q12768)” the “probe-labelled cysteine peptide fold change” value was 0.105. For “WDR59_Q6PJI9_163_NANCLATSHDGDVR (UniProt Q6PJI9)”, the “probe-labelled cysteine peptide fold change” value was 0.139. With “WDR75_Q8IWA0_451_INMPHEDCITALCFCNAEK (UniProt Q8IWA0)” the “probe-labelled cysteine peptide fold change” value was 0.027. In the case of “WDR26_Q9H7D7_316_CLYHNTK (UniProt Q9H7D7)”, the “probe-labelled cysteine peptide fold change” value is reported as 0.06. With “WDR43_Q15061_131_VNCIQWHQDSGCLYSCSDDK (UniProt Q15061)” the “probe-labelled cysteine peptide fold change” value was 0.0562. With “WDR4_P57081_227_QLHCCHLASLQELVDPQAPQK (UniProt P57081)” the “probe-labelled cysteine peptide fold change” value was 0.0145. “WDR36_Q8NI36_866_SLSPDCGGSIEVMQSFLK (UniProt Q8NI36)” was tested, and the “probe-labelled cysteine peptide fold change” value was 0.24. With “WDR92_Q96MX6_339_GLCVCSSFDQTVR (UniProt Q96MX6)” the “probe-labelled cysteine peptide fold change” value was 0.0751. For “WDR76_Q9H967_81_NSNNEVACK (UniProt Q9H967)”, the “probe-labelled cysteine peptide fold change” value was -0.0543. With “WDFY1_Q8IWB7_344_VCDSCYDSIKDEDR (UniProt Q8IWB7)” the “probe-labelled cysteine peptide fold change” value was -0.0473. With “WDR3_Q9UNX4_44_YVAVPACEHVFIWDLR (UniProt Q9UNX4)” the “probe-labelled cysteine peptide fold change” value was 0.264. With “WNK3_Q9BYP7_278_CDNIFITGPTGSVK (UniProt Q9BYP7)” the “probe-labelled cysteine peptide fold change” value was -0.0413. In the case of “WDR61_Q9GZS3_303_IVSVGDDQEIHIYDCPI (UniProt Q9GZS3)”, the “probe-labelled cysteine peptide fold change” value is reported as -0.0157. With “WASF2_Q9Y6W5_27_SELECVTNITLANVIR (UniProt Q9Y6W5)” the “probe-labelled cysteine peptide fold change” value was -0.0924. For “WDR77_Q9BQA1_186_DSVFLSCSEDNR (UniProt Q9BQA1)”, the “probe-labelled cysteine peptide fold change” value was 0.204. With “WARS2_Q9UGM6_102_QSILDMTAVLLACGINPEK (UniProt Q9UGM6)” the “probe-labelled cysteine peptide fold change” value was 0.474. With “WDFY4_Q6ZS81_1763_HHQEEVLQAGLCTEGALLLLEMLK (UniProt Q6ZS81)” the “probe-labelled cysteine peptide fold change” value was 0.571. In the case of “WHAMM_Q8TF30_435_EKQDEVVYYDPCENPEELK (UniProt Q8TF30)”, the “probe-labelled cysteine peptide fold change” value is reported as 0.196. With “WDR7_Q9Y4E6_326_ELLICPPVTR (UniProt Q9Y4E6)” the “probe-labelled cysteine peptide fold change” value was 0.0845. With “XPC_Q01831_536_SIAGIDQWLEVFCEQEEK (UniProt Q01831)” the “probe-labelled cysteine peptide fold change” value was -0.0149. For “WDHD1_O75717_156_DIFLASASCDGSVR (UniProt O75717)”, the “probe-labelled cysteine peptide fold change” value was 0.0706. In the case of “WDFY3_Q8IZQ1_16_QEECSPQDNALGLMHLR (UniProt Q8IZQ1)”, the “probe-labelled cysteine peptide fold change” value is reported as 0.018. In the case of “WRNIP1_Q96S55_39_CLLLHPAGHAEPAAGSHR (UniProt Q96S55)”, the “probe-labelled cysteine peptide fold change” value is reported as -0.0546. For “WDCP_Q9H6R7_472_LIESLSPDFCHQNK (UniProt Q9H6R7)”, the “probe-labelled cysteine peptide fold change” value was -0.129. In the case of “XPC_Q01831_60_GCSHPGGSADGPAK (UniProt Q01831)”, the “probe-labelled cysteine peptide fold change” value is reported as -0.0215.
